System: colorectal cancer
Assay: Presence of the phosphopeptide in previously analyzed colorectal cancer samples
Set-up: key: The presence of phosphopeptides in previously analyzed samples including leukemia, colorectal cancer, melanoma, ovarian cancer, breast cancer, and esophageal cancer is indicated by ✓

Row | Substance | Colorectal
1 | 7 (DLKRRSMSI; (6)...(6) The amino acid at this position is optionally phosphorylated; listed as Homo sapiens) [compound 7] | ✓
2 | 9 (FLDTPIAKV; (4)...(4) The amino acid at this position is optionally phosphorylated; listed as Homo sapiens) [compound 9] | ✓
3 | 34 (RLASYLDRV; (4)...(4) The amino acid at this position is optionally phosphorylated; listed as Homo sapiens) [compound 34] | ✓
4 | 59 (SISSMEVNV; (4)...(4) The amino acid at this position is optionally phosphorylated; listed as Homo sapiens) [compound 59] | ✓
5 | 71 (SVKPRRTSL; (8)...(8) The amino acid at this position is optionally phosphorylated; listed as Homo sapiens) [compound 71] | ✓
6 | 78 (APDSPRAFL; (4)...(4) The amino acid at this position is optionally phosphorylated; listed as Homo sapiens) [compound 78] | ✓
7 | 87 (FRGRYRSPY; (7)...(7) The amino acid at this position is optionally phosphorylated; listed as Homo sapiens) [compound 87] | ✓
8 | 96 (HRYSTPHAF; (4)...(4) The amino acid at this position is opti onally phosphorylated; listed as Homo sapiens) [compound 96] | ✓
9 | 99 (KPRPLSMDL; (6)...(6) The amino acid at this position is optionally phosphorylated; listed as Homo sapiens) [compound 99] | ✓
10 | 102 (KPRSPFSKI; (4)...(4) The amino acid at this position is optionally phosphorylated; listed as Homo sapiens) [compound 102] | ✓
11 | 117 (LPRSSSMAAGL; (6)...(6) The amino acid at this position is optionally phosphorylated; listed as Homo sapiens) [compound 117] | ✓
12 | 130 (RPASPSLQL; (4)...(4) The amino acid at this position is optionally phosphorylated; listed as Homo sapiens) [compound 130] | ✓
13 | 131 (RPASPSLQLL; (4)...(4) The amino acid at this position is optionally phosphorylated; listed as Homo sapiens) [compound 131] | ✓
14 | 133 (RPDSPTRPTL; (4)...(4) The amino acid at this position is optionally phosphorylated; listed as Homo sapiens) [compound 133] | ✓
15 | 135 (RPDVAKRLSL; (9)...(9) The amino acid at this position is optionally phosphorylated; listed as Homo sapiens) [compound 135] | ✓
16 | 136 (RPFHGISTVSL; (10)...(10) The amino acid at this position is optionally phosphorylated; listed as Homo sapiens) [compound 136] | ✓
17 | 138 (RPGSRQAGL; (4)...(4) The amino acid at this position is optionally phosphorylated; listed as Homo sapiens) [compound 138] | ✓
18 | 141 (RPISPRIGAL; (4)...(4) The amino acid at this position is optionally phosphorylated; listed as Homo sapiens) [compound 141] | ✓
19 | 144 (RPKSPLSKM; (4)...(4) The amino acid at this position is optionally phosphorylated; listed as Homo sapiens) [compound 144] | ✓
20 | 153 (RPRAATVV; (6)...(6) The amino acid at this position is optionally phosphorylated; listed as Homo sapiens) [compound 153] | ✓
21 | 163 (RPRPSSAHVGL; (6)...(6) The amino acid at this position is optionally phosphorylated; listed as Homo sapiens) [compound 163] | ✓
22 | 168 (RPRSAVEQL; (4)...(4) The amino acid at this position is optionally phosphorylated; listed as Homo sapiens) [compound 168] | ✓
23 | 176 (RPRSPNMQDL; (4)...(4) The amino acid at this position is optionally phosphorylated; listed as Homo sapiens) [compound 176] | ✓
24 | 177 (RPRSPPGGP; (4)...(4) The amino acid at this position is optionally phosphorylated; listed as Homo sapiens) [compound 177] | ✓

Row | Substance | Colorectal
25 | 219 (VPRPERRSSL; (8)...(8) The amino acid at this position is optionally phosphorylated; listed as Homo sapiens) [compound 219] | ✓
26 | 223 (YPGGRRSSL; (7)...(7) The amino acid at this position is optionally phosphorylated; listed as Homo sapiens) [compound 223] | ✓
27 | 228 (GRKSPPPSF; (4)...(4) The amino acid at this position is optionally phosphorylated; listed as Homo sapiens) [compound 228] | ✓
28 | 229 (GRLSPAYSL; (4)...(4) The amino acid at this position is optionally phosphorylated; listed as Homo sapiens) [compound 229] | ✓
29 | 230 (GRLSPVPVPR; (4)...(4) The amino acid at this position is optionally phosphorylated; listed as Homo sapiens) [compound 230] | ✓
30 | 234 (KRFSFKKSF; (4)...(4) The amino acid at this position is optionally phosphorylated; listed as Homo sapiens) [compound 234] | ✓
31 | 246 (RRASLSEIGF; (4)...(4) The amino acid at this position is optionally phosphorylated; listed as Homo sapiens) [compound 246] | ✓
32 | 247 (RRDSIVAEL; (4)...(4) The amino acid at this position is optionally phosphorylated; listed as Homo sapiens) [compound 247] | ✓
33 | 248 (RRDSLQKPGL; (4)...(4) The amino acid at this position is optionally phosphorylated; listed as Homo sapiens) [compound 248] | ✓
34 | 250 (RRFSIATLR; (4)...(4) The amino acid at this position is optionally phosphorylated; listed as Homo sapiens) [compound 250] | ✓
35 | 251 (RRFSLTTLR; (4)...(4) The amino acid at this position is optionally phosphorylated; listed as Homo sapiens) [compound 251] | ✓
36 | 258 (RRIDISPSTF; (6)...(6) The amino acid at this position is optionally phosphorylated; listed as Homo sapiens) [compound 258] | ✓
37 | 260 (RRISDPQVF; (4)...(4) The amino acid at this position is optionally phosphorylated; listed as Homo sapiens) [compound 260] | ✓
38 | 264 (RRLSELLRY; (4)...(4) The amino acid at this position is optionally phosphorylated; listed as Homo sapiens) [compound 264] | ✓
39 | 267 (RRMSFQKP; (4)...(4) The amino acid at this position is optionally phosphorylated; listed as Homo sapiens) [compound 267] | ✓
40 | 278 (RRSSIQSTF; (4)...(4) The amino acid at this position is optionally phosphorylated; listed as Homo sapiens) [compound 278] | ✓
41 | 288 (ISSSMHSLY; (4)...(4) The amino acid at this position is optionally phosphorylated; listed as Homo sapiens) [compound 288] | ✓
42 | 308 (KLPSPAPARK; (4)...(4) The amino acid at this position is optionally phosphorylated; listed as Homo sapiens) [compound 308] | ✓
43 | 329 (RTRSLSSLREK; (4)...(4) The amino acid at this position is optionally phosphorylated; listed as Homo sapiens) [compound 329] | ✓
44 | 343 (FKTQPVTF; (3)...(3) The amino acid at this position is optionally phosphorylated; listed as Homo sapiens) [compound 343] | ✓
45 | 365 (RFKTQPVTF; (4)...(4) The amino acid at this position is optionally phosphorylated; listed as Homo sapiens) [compound 365] | ✓
46 | 389 (RYQTQPVTL; (4)...(4) The amino acid at this position is optionally phosphorylated; listed as Homo sapiens) [compound 389] | ✓
47 | 391 (RTSSFTFQN; (4)...(4) The amino acid at this position is optionally phosphorylated; listed as Homo sapiens) [compound 391] | ✓
